For one molecule, binding results are on record in CN109021107A.

Chains of the proteins cited; added tags and fusions are not shown. Residues count along the entry.
UniProt Q9NZQ7, residues 19-290: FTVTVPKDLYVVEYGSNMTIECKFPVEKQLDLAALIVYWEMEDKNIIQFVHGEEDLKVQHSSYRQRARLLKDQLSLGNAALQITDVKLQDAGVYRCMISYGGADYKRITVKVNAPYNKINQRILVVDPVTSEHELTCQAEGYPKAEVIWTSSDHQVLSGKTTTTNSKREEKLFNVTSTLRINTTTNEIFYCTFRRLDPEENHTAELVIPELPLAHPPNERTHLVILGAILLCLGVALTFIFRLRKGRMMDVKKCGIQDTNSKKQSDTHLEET

These are yes or no findings as the source states them, for the method shown. Some binding calls cover weakened binding; strength is not graded here.

For this assay, the target named is PD-L1 on PD-L1 overexpressing cells (human) (UniProt Q9NZQ7). As to the kind of experiment: phage cell-binding ELISA on PD-L1 overexpressing cells, anti-M13-HRP.

B1: HUL03 scFv displayed on phage (scFv)
scFv: EVQLQESGPGLVKPSQTLSLTCTVSGDSFSSGYWNWIRQHPGKGLEYIGYVSYTGSTYYIPSLKSRVTISRDTSKNQFSLKLSSVTAADTAVYYCAGYRDWLHGYFDYWGQGTTVTVSSGGGGSGGGGSGGGGSDIQMTQSPSSLSASVGDRVTITCKASQNVGTNVAWYQQKPGKAPKRLIYSASYRFSGVPSRFSGSGSGTEFTLTISSLQPEDFATYYCQQYNSYPLTFGQGTKLEIK
In the case of B1, the binding entry is on record as “binds”.
